No constants are given. Whether binding was seen depends on the method and setting. In cells and extracts the contact can be indirect. For part of these data: Binding calls can cover weak binding; strength is not graded here. Where a sequence is shown, tags or fusion partners need not be part of it.
Legend:
POPDC1Δ236-Myc (mouse) = assay: co-IP; COS-7 lysates, immunoprecipitation of Myc-tagged POPDC1 and truncations with anti-MYC, western blot with anti-AC9 and anti-MYC
[1] = target: POPDC1Δ236 fused to a half of Venus (BiFC construct) (mouse); assay: split reporter; BiFC (split Venus, VN and VC) in COS-7 cells, which lack detectable endogenous POPDC proteins; plate reader, normalised to DAPI
[2] = target: endogenous POPDC2 of neonatal rat cardiomyocytes (rat (endogenous in neonatal cardiomyocytes)); assay: proximity ligation; neonatal rat cardiomyocytes infected with adenovirus for Flag-tagged AC9 or Flag-tagged GFP; antibodies against Flag and endogenous POPDC1, POPDC2 or Gβγ

B1: Flag-tagged AC9 (adenylyl cyclase 9) (enzyme, UniProt O60503 1-1353)
chain: MASPPHQQLLHHHSTEVSCDSSGDSNSVRVKINPKQLSSNSHPKHCKYSISSSCSSSGDSGGVPRRVGGGGRLRRQKKLPQLFERASSRWWDPKFDSVNLEEACLERCFPQTQRRFRYALFYIGFACLLWSIYFAVHMRSRLIVMVAPALCFLLVCVGFFLFTFTKLYARHYAWTSLALTLLVFALTLAAQFQVLTPVSGRGDSSNLTATARPTDTCLSQVGSFSMCIEVLFLLYTVMHLPLYLSLCLGVAYSVLFETFGYHFRDEACFPSPGAGALHWELLSRGLLHGCIHAIGVHLFVMSQVRSRSTFLKVGQSIMHGKDLEVEKALKERMIHSVMPRIIADDLMKQGDEESENSVKRHATSSPKNRKKKSSIQKAPIAFRPFKMQQIEEVSILFADIVGFTKMSANKSAHALVGLLNDLFGRFDRLCEETKCEKISTLGDCYYCVAGCPEPRADHAYCCIEMGLGMIKAIEQFCQEKKEMVNMRVGVHTGTVLCGILGMRRFKFDVWSNDVNLANLMEQLGVAGKVHISEATAKYLDDRYEMEDGKVIERLGQSVVADQLKGLKTYLISGQRAKESRCSCAEALLSGFEVIDGSQVSSGPRGQGTASSGNVSDLAQTVKTFDNLKTCPSCGITFAPKSEAGAEGGAPQNGCQDEHKNSTKASGGPNPKTQNGLLSPPQEEKLTNSQTSLCEILQEKGRWAGVSLDQSALLPLRFKNIREKTDAHFVDVIKEDSLMKDYFFKPPINQFSLNFLDQELERSYRTSYQEEVIKNSPVKTFASPTFSSLLDVFLSTTVFLTLSTTCFLKYEAATVPPPPAALAVFSAALLLEVLSLAVSIRMVFFLEDVMACTKRLLEWIAGWLPRHCIGAILVSLPALAVYSHVTSEYETNIHFPVFTGSAALIAVVHYCNFCQLSSWMRSSLATVVGAGPLLLLYVSLCPDSSVLTSPLDAVQNFSSERNPCNSSVPRDLRRPASLIGQEVVLVFFLLLLLVWFLNREFEVSYRLHYHGDVEADLHRTKIQSMRDQADWLLRNIIPYHVAEQLKVSQTYSKNHDSGGVIFASIVNFSEFYEENYEGGKECYRVLNELIGDFDELLSKPDYSSIEKIKTIGATYMAASGLNTAQAQDGSHPQEHLQILFEFAKEMMRVVDDFNNNMLWFNFKLRVGFNHGPLTAGVIGTTKLLYDIWGDTVNIASRMDTTGVECRIQVSEESYRVLSKMGYDFDYRGTVNVKGKGQMKTYLYPKCTDHRVIPQHQLSISPDIRVQVDGSIGRSPTDEIANLVPSVQYVDKTSLGSDSSTQAKDAHLSPKRPWKEPVKAEERGRFGKAIEKDDCDETGIEEANELTKLNVSKSV
binding (POPDC1Δ236-Myc (mouse)): binds

B2: AC9-VN and AC9-VC (AC9 fused to the N-terminal or C-terminal half of Venus) (enzyme, UniProt O60503 1-1353)
chain: MASPPHQQLLHHHSTEVSCDSSGDSNSVRVKINPKQLSSNSHPKHCKYSISSSCSSSGDSGGVPRRVGGGGRLRRQKKLPQLFERASSRWWDPKFDSVNLEEACLERCFPQTQRRFRYALFYIGFACLLWSIYFAVHMRSRLIVMVAPALCFLLVCVGFFLFTFTKLYARHYAWTSLALTLLVFALTLAAQFQVLTPVSGRGDSSNLTATARPTDTCLSQVGSFSMCIEVLFLLYTVMHLPLYLSLCLGVAYSVLFETFGYHFRDEACFPSPGAGALHWELLSRGLLHGCIHAIGVHLFVMSQVRSRSTFLKVGQSIMHGKDLEVEKALKERMIHSVMPRIIADDLMKQGDEESENSVKRHATSSPKNRKKKSSIQKAPIAFRPFKMQQIEEVSILFADIVGFTKMSANKSAHALVGLLNDLFGRFDRLCEETKCEKISTLGDCYYCVAGCPEPRADHAYCCIEMGLGMIKAIEQFCQEKKEMVNMRVGVHTGTVLCGILGMRRFKFDVWSNDVNLANLMEQLGVAGKVHISEATAKYLDDRYEMEDGKVIERLGQSVVADQLKGLKTYLISGQRAKESRCSCAEALLSGFEVIDGSQVSSGPRGQGTASSGNVSDLAQTVKTFDNLKTCPSCGITFAPKSEAGAEGGAPQNGCQDEHKNSTKASGGPNPKTQNGLLSPPQEEKLTNSQTSLCEILQEKGRWAGVSLDQSALLPLRFKNIREKTDAHFVDVIKEDSLMKDYFFKPPINQFSLNFLDQELERSYRTSYQEEVIKNSPVKTFASPTFSSLLDVFLSTTVFLTLSTTCFLKYEAATVPPPPAALAVFSAALLLEVLSLAVSIRMVFFLEDVMACTKRLLEWIAGWLPRHCIGAILVSLPALAVYSHVTSEYETNIHFPVFTGSAALIAVVHYCNFCQLSSWMRSSLATVVGAGPLLLLYVSLCPDSSVLTSPLDAVQNFSSERNPCNSSVPRDLRRPASLIGQEVVLVFFLLLLLVWFLNREFEVSYRLHYHGDVEADLHRTKIQSMRDQADWLLRNIIPYHVAEQLKVSQTYSKNHDSGGVIFASIVNFSEFYEENYEGGKECYRVLNELIGDFDELLSKPDYSSIEKIKTIGATYMAASGLNTAQAQDGSHPQEHLQILFEFAKEMMRVVDDFNNNMLWFNFKLRVGFNHGPLTAGVIGTTKLLYDIWGDTVNIASRMDTTGVECRIQVSEESYRVLSKMGYDFDYRGTVNVKGKGQMKTYLYPKCTDHRVIPQHQLSISPDIRVQVDGSIGRSPTDEIANLVPSVQYVDKTSLGSDSSTQAKDAHLSPKRPWKEPVKAEERGRFGKAIEKDDCDETGIEEANELTKLNVSKSV
binding [1]: binds

B3: Flag-tagged AC9, adenovirally expressed (enzyme, UniProt O60503 1-1353)
chain: MASPPHQQLLHHHSTEVSCDSSGDSNSVRVKINPKQLSSNSHPKHCKYSISSSCSSSGDSGGVPRRVGGGGRLRRQKKLPQLFERASSRWWDPKFDSVNLEEACLERCFPQTQRRFRYALFYIGFACLLWSIYFAVHMRSRLIVMVAPALCFLLVCVGFFLFTFTKLYARHYAWTSLALTLLVFALTLAAQFQVLTPVSGRGDSSNLTATARPTDTCLSQVGSFSMCIEVLFLLYTVMHLPLYLSLCLGVAYSVLFETFGYHFRDEACFPSPGAGALHWELLSRGLLHGCIHAIGVHLFVMSQVRSRSTFLKVGQSIMHGKDLEVEKALKERMIHSVMPRIIADDLMKQGDEESENSVKRHATSSPKNRKKKSSIQKAPIAFRPFKMQQIEEVSILFADIVGFTKMSANKSAHALVGLLNDLFGRFDRLCEETKCEKISTLGDCYYCVAGCPEPRADHAYCCIEMGLGMIKAIEQFCQEKKEMVNMRVGVHTGTVLCGILGMRRFKFDVWSNDVNLANLMEQLGVAGKVHISEATAKYLDDRYEMEDGKVIERLGQSVVADQLKGLKTYLISGQRAKESRCSCAEALLSGFEVIDGSQVSSGPRGQGTASSGNVSDLAQTVKTFDNLKTCPSCGITFAPKSEAGAEGGAPQNGCQDEHKNSTKASGGPNPKTQNGLLSPPQEEKLTNSQTSLCEILQEKGRWAGVSLDQSALLPLRFKNIREKTDAHFVDVIKEDSLMKDYFFKPPINQFSLNFLDQELERSYRTSYQEEVIKNSPVKTFASPTFSSLLDVFLSTTVFLTLSTTCFLKYEAATVPPPPAALAVFSAALLLEVLSLAVSIRMVFFLEDVMACTKRLLEWIAGWLPRHCIGAILVSLPALAVYSHVTSEYETNIHFPVFTGSAALIAVVHYCNFCQLSSWMRSSLATVVGAGPLLLLYVSLCPDSSVLTSPLDAVQNFSSERNPCNSSVPRDLRRPASLIGQEVVLVFFLLLLLVWFLNREFEVSYRLHYHGDVEADLHRTKIQSMRDQADWLLRNIIPYHVAEQLKVSQTYSKNHDSGGVIFASIVNFSEFYEENYEGGKECYRVLNELIGDFDELLSKPDYSSIEKIKTIGATYMAASGLNTAQAQDGSHPQEHLQILFEFAKEMMRVVDDFNNNMLWFNFKLRVGFNHGPLTAGVIGTTKLLYDIWGDTVNIASRMDTTGVECRIQVSEESYRVLSKMGYDFDYRGTVNVKGKGQMKTYLYPKCTDHRVIPQHQLSISPDIRVQVDGSIGRSPTDEIANLVPSVQYVDKTSLGSDSSTQAKDAHLSPKRPWKEPVKAEERGRFGKAIEKDDCDETGIEEANELTKLNVSKSV
binding [2]: no binding
